The results in this text go back to PMC6401029.

By UniProt entry, the sequences of proteins in these tests, tags left out.
UniProt Q9JLV5: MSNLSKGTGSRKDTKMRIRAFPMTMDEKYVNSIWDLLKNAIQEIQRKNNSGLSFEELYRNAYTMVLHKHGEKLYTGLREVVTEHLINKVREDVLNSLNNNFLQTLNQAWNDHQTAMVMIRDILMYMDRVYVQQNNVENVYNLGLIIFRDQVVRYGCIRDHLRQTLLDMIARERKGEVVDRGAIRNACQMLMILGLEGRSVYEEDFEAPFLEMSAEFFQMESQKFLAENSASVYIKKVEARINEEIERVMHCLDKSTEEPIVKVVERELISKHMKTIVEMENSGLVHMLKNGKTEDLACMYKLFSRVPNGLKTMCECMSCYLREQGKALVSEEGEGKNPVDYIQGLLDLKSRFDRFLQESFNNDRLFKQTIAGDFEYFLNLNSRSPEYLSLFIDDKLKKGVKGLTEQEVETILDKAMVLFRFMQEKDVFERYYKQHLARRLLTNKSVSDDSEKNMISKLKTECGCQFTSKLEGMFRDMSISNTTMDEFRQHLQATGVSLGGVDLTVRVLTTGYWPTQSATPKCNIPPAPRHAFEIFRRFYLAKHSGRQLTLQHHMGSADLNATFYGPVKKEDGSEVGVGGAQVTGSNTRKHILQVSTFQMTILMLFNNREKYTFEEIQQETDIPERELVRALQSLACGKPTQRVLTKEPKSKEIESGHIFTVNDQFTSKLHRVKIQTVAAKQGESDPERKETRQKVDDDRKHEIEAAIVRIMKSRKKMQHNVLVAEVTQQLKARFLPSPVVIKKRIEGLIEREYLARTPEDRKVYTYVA
UniProt Q8BNW9: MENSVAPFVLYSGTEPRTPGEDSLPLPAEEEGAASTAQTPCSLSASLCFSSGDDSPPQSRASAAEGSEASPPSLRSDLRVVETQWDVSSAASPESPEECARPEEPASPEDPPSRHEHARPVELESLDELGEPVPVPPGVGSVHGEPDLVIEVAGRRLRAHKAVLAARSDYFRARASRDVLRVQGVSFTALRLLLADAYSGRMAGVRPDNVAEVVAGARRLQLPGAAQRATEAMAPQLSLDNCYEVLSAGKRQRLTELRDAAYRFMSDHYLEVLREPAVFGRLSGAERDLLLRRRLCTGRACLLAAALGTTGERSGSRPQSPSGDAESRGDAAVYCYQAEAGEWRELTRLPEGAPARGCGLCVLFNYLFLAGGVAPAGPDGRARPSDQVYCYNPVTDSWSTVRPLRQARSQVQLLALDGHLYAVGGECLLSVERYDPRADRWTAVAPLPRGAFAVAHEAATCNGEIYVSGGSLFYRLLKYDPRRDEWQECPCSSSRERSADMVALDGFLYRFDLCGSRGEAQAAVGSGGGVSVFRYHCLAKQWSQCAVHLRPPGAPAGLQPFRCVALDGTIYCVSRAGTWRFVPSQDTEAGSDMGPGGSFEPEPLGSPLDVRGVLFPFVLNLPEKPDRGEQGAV

The target in the assay is Cullin3 (mouse (endogenous in RAW-D)) (UniProt Q9JLV5). The assay is described as follows: co-IP; RAW-D cells cultured with RANKL (100 ng/mL) for 2 days; lysed in PBS with 0.1% Triton X-100, 10 mM N-ethylmaleimide and proteinase inhibitors; supernatant immunoprecipitated with anti-Cullin3 antibody immobilised on resin (Pierce Co-immunoprecipitation Kit); western blot with anti-GFP antibody. A general note: In western blotting, separated proteins are transferred to a membrane and probed.

No constants are given. Whether binding was seen depends on the method and setting. Binding seen in cells or lysates may run through a third protein. Some entries that bind do so weakly or less than the wild type.

Turning to “KBTBD11-GFP fusion protein (Kelch repeat and BTB domain-containing protein 11, mouse) (from UniProt Q8BNW9 1-633)”, the binding result was “binds”.
